These are yes or no findings as the source states them, for the method shown. In cells and extracts the contact can be indirect. Some entries that bind do so weakly or less than the wild type. Tags and fused reporters may be left off the sequences shown.

By UniProt entry, the sequences of proteins in these tests, tags left out. Residues count along the entry.
UniProt P40189, residues 23-918: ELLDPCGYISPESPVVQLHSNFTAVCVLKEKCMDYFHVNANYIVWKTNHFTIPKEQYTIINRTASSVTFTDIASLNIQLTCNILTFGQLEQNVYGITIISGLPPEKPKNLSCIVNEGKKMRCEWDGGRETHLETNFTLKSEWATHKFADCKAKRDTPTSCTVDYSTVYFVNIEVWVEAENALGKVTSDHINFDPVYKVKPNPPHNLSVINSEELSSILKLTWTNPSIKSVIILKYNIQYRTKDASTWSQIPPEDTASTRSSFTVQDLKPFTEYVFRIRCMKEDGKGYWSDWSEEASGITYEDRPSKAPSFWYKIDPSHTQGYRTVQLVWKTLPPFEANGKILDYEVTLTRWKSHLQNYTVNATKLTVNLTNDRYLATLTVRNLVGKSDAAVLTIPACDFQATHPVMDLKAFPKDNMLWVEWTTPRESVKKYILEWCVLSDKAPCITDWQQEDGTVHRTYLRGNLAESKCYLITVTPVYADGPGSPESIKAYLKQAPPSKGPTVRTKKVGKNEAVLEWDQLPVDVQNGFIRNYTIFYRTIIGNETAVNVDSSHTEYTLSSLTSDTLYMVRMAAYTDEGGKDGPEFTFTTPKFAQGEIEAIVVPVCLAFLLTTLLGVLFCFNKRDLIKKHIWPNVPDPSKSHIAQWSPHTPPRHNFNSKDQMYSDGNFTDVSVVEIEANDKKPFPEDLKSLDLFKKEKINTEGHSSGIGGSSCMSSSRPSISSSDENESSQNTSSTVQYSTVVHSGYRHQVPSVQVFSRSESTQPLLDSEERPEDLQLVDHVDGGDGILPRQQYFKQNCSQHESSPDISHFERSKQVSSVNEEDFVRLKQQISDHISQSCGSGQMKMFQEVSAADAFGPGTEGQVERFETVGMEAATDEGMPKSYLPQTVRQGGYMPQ

One molecule from publication PMC9585078 can be followed below.

The target of the experiment is His-tagged GP130 (human (cDNA library of HEK293 cells)) (UniProt P40189). Kind of experiment: co-IP; HEK 293 cells transfected for 48 h with FLAG-tagged PROM1 (full length, deletion mutants or PROM1^GPI-EX1) and GP130-His; reciprocal immunoprecipitation for the full-length pair; NP-40 lysates (25 mM HEPES, 150 mM NaCl, 1% NP-40), 4 °C; also after MβCD cholesterol depletion (interaction not changed).

B1: FLAG-tagged human PROM1 transcript variant 2, full length (1-856) (protein, UniProt O43490-2 20-856)
chain: GGQPSSTDAPKAWNYELPATNYETQDSHKAGPIGILFELVHIFLYVVQPRDFPEDTLRKFLQKAYESKIDYDKIVYYEAGIILCCVLGLLFIILMPLVGYFFCMCRCCNKCGGEMHQRQKENGPFLRKCFAISLLVICIIISIGIFYGFVANHQVRTRIKRSRKLADSNFKDLRTLLNETPEQIKYILAQYNTTKDKAFTDLNSINSVLGGGILDRLRPNIIPVLDEIKSMATAIKETKEALENMNSTLKSLHQQSTQLSSSLTSVKTSLRSSLNDPLCLVHPSSETCNSIRLSLSQLNSNPELRQLPPVDAELDNVNNVLRTDLDGLVQQGYQSLNDIPDRVQRQTTTVVAGIKRVLNSIGSDIDNVTQRLPIQDILSAFSVYVNNTESYIHRNLPTLEEYDSYWWLGGLVICSLLTLIVIFYYLGLLCGVCGYDRHATPTTRGCVSNTGGVFLMVGVGLSFLFCWILMIIVVLTFVFGANVEKLICEPYTSKELFRVLDTPYLLNEDWEYYLSGKLFNKSKMKLTFEQVYSDCKKNRGTYGTLHLQNSFNISEHLNINEHTGSISSELESLKVNLNIFLLGAAGRKNLQDFAACGIDRMNYDSYLAQTGKSPAGVNLLSFAYDLEAKANSLPPGNLRNSLKRDAQTIKTIHQQRVLPIEQSLSTLYQSVKILQRTGNGLLERVTRILASLDFAQNFITNNTSSVIIEETKKYGRTIIGYFEHYLQWIEFSISEKVASCKPVATALDTAVDVFLCSYIIDPLNLFWFGIGKATVFLLPALIFAVKLAKYYRRMDSEDVYDDVETIPMKNMENGNNGYHKDHVYGIHNPVMTSPSQH
B1: the binding result is given as “binds”.
